{"source": "paper PMC11233601", "target": "T1, GST-p107-R1R2 (human) (UniProt P28749)", "T1 sequence": "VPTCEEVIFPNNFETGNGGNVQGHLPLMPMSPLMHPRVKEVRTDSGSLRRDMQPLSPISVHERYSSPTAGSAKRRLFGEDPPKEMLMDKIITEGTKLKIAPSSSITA", "experiment": "pull-down; competition: purified PP2A/B55α holoenzymes preincubated with increasing nM HA-Fam122a 30 min at 37 °C, then with µM GST-p107 R1R2 on beads 3 h or overnight at 4 °C; blots for B55α and GST; both purified", "note": "No constants are given. Whether binding was seen depends on the method and setting. A result given as binding can be weak or reduced; the word gives no strength. Sequences can lack the tags named with a protein.", "data": [{"substance": "purified PP2A/B55α holoenzyme (complex)", "values": [{"measurement": "binding", "value": "binds"}]}]}
